Laboratory results as given in patent publication US20110143963A1.
Where a chain is given by its changes, count along the chain named. Results are given in words; binding and its absence hold for the method and conditions named. Binding calls can cover weak binding; strength is not graded here. For part of these data: In cells and extracts the contact can be indirect. Blank lines part the entries; values can stand above or below the binder they belong to.

How the values were obtained:
[1] = target: SUMO-ARVCF fusion protein (yeast); assay: Western blotting of E. coli lysate with 5 nanograms of SUMO-ARVCF
[2] = target: SUMO-ARVCF fusion protein (yeast); assay: pull-down with biotinylated ePDZ and streptavidin magnetic beads
[3] = target: SUMO-ARVCF fusion protein (yeast); assay: immunoprecipitation (pull-down), FIG. E2B
[4] = target: SUMO-ARVCF fusion protein (yeast); assay: equilibrium SPR, response against the concentration of the target peptide fused to SUMO

B3: ePDZ-b1 (designed binder)
chain: MKHHHHHHHHHHSSDYKDDDDKGENLYFQGSPELGFSISGGVGGRGNPFRPDDDGIFVTRVQPEGPASKLLQPGDKIIQANGYSFINIEHGQAVSLLKTFQNTVELIIVREVGNGAKQEIRVRVEKDGGSGGVSSVPTNLEVVAATPTSLLISWDAYRELPVSYYRITYGETGGNSPVQEFTVPGSKSTATISGLKPGVDYTITVYAHYNYHYYSSPISINYRT
- binding [3]: binds

B4: circularly permutated PDZ domain (designed binder)
chain: PELGFSISGGVGGRGNPFRPDDDGIFVTRVQPEGPASKLLQPGDKIIQANGYSFINIEHGQAVSLLKTFQNTVELIIVREVGNGAKQEIRVRVEKD
- binding [4]: binds

Other lines, results leading:

- binding [1]: binds
- binding [2]: binds
B1: enhanced PDZ-a (designed binder)
chain: MKHHHHHHHHHHSSDYKDDDDKGENLYFQGSPELGFSISGGVGGRGNPFRPDDDGIFVTRVQPEGPASKLLQPGDKIIQANGYSFINIEHGQAVSLLKTFQNTVELIIVREVGNGAKQEIRVRVEKDGGSGGVSSVPTNLEVVAATPTSLLISWDASYYGVSYYRITYGETGGNSPVQEFTVPYSSSTATISGLKPGVDYTITVYAYSDYYGSHHYSPISINYRT

- binding [1]: binds
- binding [2]: binds
B2: enhanced PDZ-b (designed binder)
chain: B3 chain with R158Y, E159D, L160S, P161H
